Reference: PubChem BioAssay AID602196 (INSERM, 2012)

- Screen: 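Modifiers of cisplatin sensitivity in A549 cells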
- Cells: human A549 lung cancer cells
- Reagent: siRNA pair against human genes
- Time to read-out: 48 h transfection before cisplatin; time from cisplatin to read-out not stated
- Challenge: cisplatin at a dose killing half of control-siRNA cells; exact dose and duration not given
- Read-out: 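Shift in cisplatin death relative to control siRNA, from -50 (all cells die) to +50 (no cells die); siRNAs harmful on their own scored 0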
- Direction: two-siRNA summed score (-2 to +2): higher = both siRNAs protect from cisplatin killing; -2 means both sensitise; mean protection from cisplatin (shift in death) and protection from cisplatin (shift in death), siRNA C and protection from cisplatin (shift in death), siRNA D: higher = protection from cisplatin killing
- Rule for the call: 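Each siRNA scores 0 if harmful alone by LDH or WST-1, otherwise +1 if it reduces and -1 if it increases cisplatin killing; a gene is active when both siRNAs agree (sum +2 or -2)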
- Meaning of the calls: active = both siRNAs shift cisplatin killing the same way; inactive = no consistent shift, or siRNA harmful alone
In all, the deposit lists about 23,000 reagents; below is an unselected part. Over the whole deposit, 455 (2%) got an active call. 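Active includes both protection and sensitisation; some change values fall well beyond the stated -50 to +50 range.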 The record does not give: the amount of reagent.

no.	target gene	two-siRNA summed score (-2 to +2)	mean protection from cisplatin (shift in death) (%)	protection from cisplatin (shift in death), siRNA C (%)	protection from cisplatin (shift in death), siRNA D (%)	Call
1	TNFRSF1B (TNF receptor superfamily member 1B)	-1	-9.3	-18.9	0.3	inactive
2	CRCP (CGRP receptor component)	0	-4.4	5.9	-14.6	inactive
3	OR52K1 (olfactory receptor family 52 subfamily K member 1)	0	4.2	15.7	-7.4	inactive
4	LOC340192	0	4.8	10.3	-0.7	inactive
5	PRR16 (proline rich 16)	0	11.3	4.5	18.1	inactive
6	TGIF2 (TGFB induced factor homeobox 2)	0	8	12.9	3	inactive
7	CD226 (CD226 molecule)	0	0.8	0.2	1.4	inactive
8	USP15 (ubiquitin specific peptidase 15)	1	6.5	-4	17.1	inactive
9	RFK (riboflavin kinase)	0	5	2.6	7.3	inactive
10	LOC391209	0	9.8	6.4	13.2	inactive
11	RPS15 (ribosomal protein S15)	0	29.4	36.7	22	inactive
12	MAN1A2 (mannosidase alpha class 1A member 2)	0	13.1	13.6	12.5	inactive
13	TTLL2 (tubulin tyrosine ligase like 2)	0	1.7	2.4	1	inactive
14	PDIA6 (protein disulfide isomerase family A member 6)	1	8.8	6.1	11.5	inactive
15	TEX36 (testis expressed 36)	1	12.7	16.6	8.8	inactive
16	RIOK1 (RIO kinase 1)	1	7.3	2.1	12.4	inactive
17	CACNG3 (calcium voltage-gated channel auxiliary subunit gamma 3)	-1	-17.4	-9.4	-25.3	inactive

Individual results from above.
CACNG3 (calcium voltage-gated channel auxiliary subunit gamma 3), mean protection from cisplatin (shift in death) (%) → -17.4
LOC391209, two-siRNA summed score (-2 to +2) = 0
For “two-siRNA summed score (-2 to +2)”, CD226 (CD226 molecule) is entered as 0

The list goes on.
no.	target gene	two-siRNA summed score (-2 to +2)	mean protection from cisplatin (shift in death) (%)	protection from cisplatin (shift in death), siRNA C (%)	protection from cisplatin (shift in death), siRNA D (%)	Call
18	RNF19B (ring finger protein 19B)	-1	-21.2	-14.6	-27.9	inactive
19	LOC388538	1	21.3	20.7	22	inactive
20	USP38 (ubiquitin specific peptidase 38)	0	19.3	16.9	21.7	inactive
21	LOC441881	0	5.8	1.8	9.8	inactive
22	MSX2P1 (msh homeobox 2 pseudogene 1)	0	20.1	14.4	25.7	inactive
23	SOS1 (SOS Ras/Rac guanine nucleotide exchange factor 1)	0	-2.9	1.1	-6.8	inactive
24	APOL2 (apolipoprotein L2)	-1	-14	-4.8	-23.2	inactive
25	BAGE (B melanoma antigen)	0	0.3	3	-2.4	inactive
26	IGF2-AS (IGF2 antisense RNA)	0	8.4	2.4	14.4	inactive
27	MIR1-1HG (MIR1-1 host gene)	0	13.3	1.5	25.1	inactive
28	LSM2	0	-8.6	4.1	-21.3	inactive
29	SRSF6 (serine and arginine rich splicing factor 6)	0	9.5	13.8	5.2	inactive
30	MCHR1 (melanin concentrating hormone receptor 1)	-1	-8.4	1.5	-18.3	inactive
31	COLEC12 (collectin subfamily member 12)	1	15.9	21.5	10.2	inactive
32	C1QBP (complement C1q binding protein)	0	1.4	-4.4	7.2	inactive
33	TAF10 (TATA-box binding protein associated factor 10)	0	12.3	17.3	7.3	inactive
34	KLF2 (KLF transcription factor 2)	1	15.4	25.1	5.8	inactive
35	ZNF518A (zinc finger protein 518A)	1	8.5	5.7	11.3	inactive
36	TMEM11 (transmembrane protein 11)	0	2.7	-2.7	8.1	inactive
37	EFNB2 (ephrin B2)	-1	-6.4	16.1	-28.9	inactive
38	BACE2 (beta-secretase 2)	-1	-7.7	-16.1	0.7	inactive
39	LOC392360	1	13.3	14.4	12.2	inactive
